# Values quoted from earlier work, collected in patent US20220362249A1, “METHODS FOR TREATING […]” (PTC Therapeutics MP, Inc., priority 2019, published 2022).
# At least one compound was matched to its structure with a doubt left.
# Tested on: phenylalanine plasma concentrations
# Details: BH4 supplementation; cited from earlier work
smiles,measurement,value
"C[C@H](O)[C@H](O)[C@H]1CNc2nc(N)[nH]c(=O)c2N1 [BH4, Tetrahydrobiopterin]",PKU patients with clinically meaningful lowering of phenylalanine plasma concentrations,approximately 30%
